The text below walks through data of patent US20220017573A1.

Series [1] concerns ScuR (Streptococcus salivarius HSISS4). The series is described as follows: EMSA. The following applies: purified recombinant protein, label: 5'-Cy3.
The subject of series [2] is SarF (Streptococcus salivarius HSISS4). The series is described as follows: EMSA. To be noted: purified recombinant protein, label: 5'-Cy3.
A further series deals with ComR. The series is described as follows: EMSA. To be noted: with sComS, purified recombinant protein, protein details: C-terminal StrepTagII, expressed in E. coli, label: 5'-Cy3.
In series [3] the test system is ComR (Streptococcus salivarius HSISS4). The series is described as follows: activity in cells. The following applies: luxAB reporter; mutation bolsters ComRS-mediated activation; protein in cells; variant of PcomX probe; only the site is given.

The exact form of at least one protein or probe is not confirmed. For some assays here: A negative result means that nothing was seen under these conditions. For some assays here: The comparison behind a weaker result is the experiment's own reference, which may not be listed here.

With “TTTTATAGTGACATATATGTCGCTATTTTA (double strand) [PcomX probe]”, the binding result in series [1] (negative control probe) and in series [2] (negative control probe) was “no binding” throughout.
Regarding “CTCCATAGTGACATTTATGTCACTATTTTT (double strand) [PslvX probe]”, the binding result in the series on ComR (stronger than ScuR-sBI7) is “binds”; in series [1] (with sBI7, less stable complex (smear), weaker than ComR-sComS), “binds”.
For “AATGGTGGTGACATAAATGTCACTACTTTT (double strand) [PcomS probe]”, the binding result in the series on ComR (stronger than ScuR-sBI7) was “binds”; in series [1] (with sBI7, weakest ScuR affinity, smear), “binds more weakly”.
Take “TAACGAGTCAAAGTGACATAGATGTCCTTTTGATTCGTTA (double strand) [PsptA probe]”: the binding result with ComR (binds though not transactivating in vivo) is recorded as “binds”; in series [1] (with peptide LAFWDSLG, 4 uM ScuR) it was “binds”; in series [1] (with peptide LAFWDSLGLLL, only at extreme peptide concentration, 4 uM ScuR), “binds more weakly”; in series [1] (with sBI7 peptide, strongest ScuR affinity, doublet at high concentration) it was “binds”; in series [2] (binding increases progressively with sBI7 peptide) it was “binds”.
Take “TTTTATAGTGACATATATGTCACTATTTTA (double strand) [PcomX G→A probe]”: the binding result was “binds” in series [1] (palindrome restored by G→A, variant of PcomX probe) and “no binding” in series [2] (variant of PcomX probe). For the same sequence, the “activity on this sequence” value in series [3] is recorded as “active”.
